Source: the supplement of paper PMC11006884
Only a part is listed here, and it is no random draw.

Protein sequences, listed by entry. Tags and fused reporters are not part of them. Lines headed by an entry give the natural chain unless they say otherwise; changes in a name come on top.
UniProt P26640: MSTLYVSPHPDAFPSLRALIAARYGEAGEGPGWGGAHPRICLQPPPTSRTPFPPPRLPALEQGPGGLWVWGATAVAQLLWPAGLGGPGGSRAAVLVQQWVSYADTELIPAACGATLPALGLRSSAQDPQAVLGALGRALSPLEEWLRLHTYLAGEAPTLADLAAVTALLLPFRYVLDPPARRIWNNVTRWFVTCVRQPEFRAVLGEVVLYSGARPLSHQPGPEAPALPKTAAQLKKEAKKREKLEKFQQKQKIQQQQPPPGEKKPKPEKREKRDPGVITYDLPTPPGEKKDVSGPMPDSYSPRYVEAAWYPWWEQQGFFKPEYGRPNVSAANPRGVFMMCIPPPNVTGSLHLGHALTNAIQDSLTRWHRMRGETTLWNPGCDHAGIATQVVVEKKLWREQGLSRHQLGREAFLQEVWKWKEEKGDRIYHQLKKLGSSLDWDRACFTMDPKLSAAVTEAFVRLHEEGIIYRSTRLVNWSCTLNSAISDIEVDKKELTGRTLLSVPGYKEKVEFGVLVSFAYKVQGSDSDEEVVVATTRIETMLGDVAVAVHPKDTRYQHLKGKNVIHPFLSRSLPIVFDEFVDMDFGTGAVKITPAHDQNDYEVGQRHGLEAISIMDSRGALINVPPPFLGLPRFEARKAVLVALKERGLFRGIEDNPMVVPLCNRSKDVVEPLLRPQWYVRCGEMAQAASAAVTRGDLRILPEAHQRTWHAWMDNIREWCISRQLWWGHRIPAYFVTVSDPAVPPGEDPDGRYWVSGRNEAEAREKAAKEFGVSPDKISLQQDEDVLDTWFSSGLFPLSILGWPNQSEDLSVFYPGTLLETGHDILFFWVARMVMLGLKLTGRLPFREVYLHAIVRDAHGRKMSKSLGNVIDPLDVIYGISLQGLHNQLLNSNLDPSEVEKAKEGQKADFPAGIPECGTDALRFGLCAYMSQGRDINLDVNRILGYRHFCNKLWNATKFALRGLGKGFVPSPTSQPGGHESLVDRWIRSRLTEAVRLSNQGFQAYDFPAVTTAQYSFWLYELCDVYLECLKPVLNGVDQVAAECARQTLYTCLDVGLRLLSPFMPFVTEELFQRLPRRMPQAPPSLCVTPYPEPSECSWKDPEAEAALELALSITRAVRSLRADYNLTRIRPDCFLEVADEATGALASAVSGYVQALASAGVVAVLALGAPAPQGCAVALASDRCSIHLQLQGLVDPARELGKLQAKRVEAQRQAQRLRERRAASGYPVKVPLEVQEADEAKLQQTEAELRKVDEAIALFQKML
UniProt P27708: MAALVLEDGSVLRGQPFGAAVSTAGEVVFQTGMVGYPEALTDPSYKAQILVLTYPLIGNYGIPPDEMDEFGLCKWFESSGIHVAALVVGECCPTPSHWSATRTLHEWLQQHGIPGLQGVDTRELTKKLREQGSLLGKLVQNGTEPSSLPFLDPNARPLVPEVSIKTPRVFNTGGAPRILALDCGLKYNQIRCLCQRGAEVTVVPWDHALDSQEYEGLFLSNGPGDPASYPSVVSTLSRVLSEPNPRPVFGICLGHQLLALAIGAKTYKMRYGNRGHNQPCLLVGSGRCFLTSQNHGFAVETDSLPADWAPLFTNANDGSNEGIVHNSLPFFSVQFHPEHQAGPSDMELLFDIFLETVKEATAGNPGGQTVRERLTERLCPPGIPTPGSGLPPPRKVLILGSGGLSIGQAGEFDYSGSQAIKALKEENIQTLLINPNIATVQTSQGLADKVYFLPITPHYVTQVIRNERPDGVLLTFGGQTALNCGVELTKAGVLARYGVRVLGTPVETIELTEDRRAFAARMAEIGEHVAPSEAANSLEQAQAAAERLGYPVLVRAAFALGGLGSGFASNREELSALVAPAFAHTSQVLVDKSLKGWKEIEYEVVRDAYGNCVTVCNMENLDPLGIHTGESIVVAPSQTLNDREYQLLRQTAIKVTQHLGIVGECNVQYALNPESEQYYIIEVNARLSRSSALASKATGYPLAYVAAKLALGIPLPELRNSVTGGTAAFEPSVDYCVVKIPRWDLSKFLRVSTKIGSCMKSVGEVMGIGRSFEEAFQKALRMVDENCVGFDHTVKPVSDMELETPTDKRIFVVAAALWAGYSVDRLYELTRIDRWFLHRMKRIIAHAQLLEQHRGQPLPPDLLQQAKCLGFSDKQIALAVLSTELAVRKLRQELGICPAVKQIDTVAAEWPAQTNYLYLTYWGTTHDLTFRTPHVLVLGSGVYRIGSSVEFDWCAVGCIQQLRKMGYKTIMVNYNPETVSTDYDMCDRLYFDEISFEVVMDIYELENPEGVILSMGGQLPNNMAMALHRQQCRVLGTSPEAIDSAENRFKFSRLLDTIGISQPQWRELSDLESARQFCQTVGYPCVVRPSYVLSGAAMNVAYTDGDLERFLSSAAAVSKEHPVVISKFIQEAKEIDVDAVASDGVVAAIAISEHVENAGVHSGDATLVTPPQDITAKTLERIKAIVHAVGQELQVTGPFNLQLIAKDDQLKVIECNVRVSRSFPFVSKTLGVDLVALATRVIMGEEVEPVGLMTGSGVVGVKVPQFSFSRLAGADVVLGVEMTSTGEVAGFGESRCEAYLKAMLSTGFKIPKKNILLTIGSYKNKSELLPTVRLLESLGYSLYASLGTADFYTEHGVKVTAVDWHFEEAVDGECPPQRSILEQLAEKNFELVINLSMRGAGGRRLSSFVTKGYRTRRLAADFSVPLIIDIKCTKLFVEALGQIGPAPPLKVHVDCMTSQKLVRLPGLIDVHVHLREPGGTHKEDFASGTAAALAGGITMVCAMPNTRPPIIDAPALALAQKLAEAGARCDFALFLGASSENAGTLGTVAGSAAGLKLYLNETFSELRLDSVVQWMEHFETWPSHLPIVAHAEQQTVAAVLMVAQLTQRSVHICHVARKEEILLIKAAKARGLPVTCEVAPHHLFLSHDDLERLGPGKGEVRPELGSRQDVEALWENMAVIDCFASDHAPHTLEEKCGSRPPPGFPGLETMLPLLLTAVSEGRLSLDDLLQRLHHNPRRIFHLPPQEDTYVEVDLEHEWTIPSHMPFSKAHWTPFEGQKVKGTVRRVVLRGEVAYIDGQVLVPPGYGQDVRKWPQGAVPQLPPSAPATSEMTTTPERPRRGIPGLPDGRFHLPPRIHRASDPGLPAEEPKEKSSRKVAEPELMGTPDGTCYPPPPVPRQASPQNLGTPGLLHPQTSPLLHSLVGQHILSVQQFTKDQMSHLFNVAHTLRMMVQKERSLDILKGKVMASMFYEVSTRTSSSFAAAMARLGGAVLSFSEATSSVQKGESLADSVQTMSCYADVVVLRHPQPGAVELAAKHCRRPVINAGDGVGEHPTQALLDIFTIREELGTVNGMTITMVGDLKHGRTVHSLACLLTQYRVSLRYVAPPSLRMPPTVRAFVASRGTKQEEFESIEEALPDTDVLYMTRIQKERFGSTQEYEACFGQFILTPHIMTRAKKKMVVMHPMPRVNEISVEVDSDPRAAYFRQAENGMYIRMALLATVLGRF
UniProt P26358: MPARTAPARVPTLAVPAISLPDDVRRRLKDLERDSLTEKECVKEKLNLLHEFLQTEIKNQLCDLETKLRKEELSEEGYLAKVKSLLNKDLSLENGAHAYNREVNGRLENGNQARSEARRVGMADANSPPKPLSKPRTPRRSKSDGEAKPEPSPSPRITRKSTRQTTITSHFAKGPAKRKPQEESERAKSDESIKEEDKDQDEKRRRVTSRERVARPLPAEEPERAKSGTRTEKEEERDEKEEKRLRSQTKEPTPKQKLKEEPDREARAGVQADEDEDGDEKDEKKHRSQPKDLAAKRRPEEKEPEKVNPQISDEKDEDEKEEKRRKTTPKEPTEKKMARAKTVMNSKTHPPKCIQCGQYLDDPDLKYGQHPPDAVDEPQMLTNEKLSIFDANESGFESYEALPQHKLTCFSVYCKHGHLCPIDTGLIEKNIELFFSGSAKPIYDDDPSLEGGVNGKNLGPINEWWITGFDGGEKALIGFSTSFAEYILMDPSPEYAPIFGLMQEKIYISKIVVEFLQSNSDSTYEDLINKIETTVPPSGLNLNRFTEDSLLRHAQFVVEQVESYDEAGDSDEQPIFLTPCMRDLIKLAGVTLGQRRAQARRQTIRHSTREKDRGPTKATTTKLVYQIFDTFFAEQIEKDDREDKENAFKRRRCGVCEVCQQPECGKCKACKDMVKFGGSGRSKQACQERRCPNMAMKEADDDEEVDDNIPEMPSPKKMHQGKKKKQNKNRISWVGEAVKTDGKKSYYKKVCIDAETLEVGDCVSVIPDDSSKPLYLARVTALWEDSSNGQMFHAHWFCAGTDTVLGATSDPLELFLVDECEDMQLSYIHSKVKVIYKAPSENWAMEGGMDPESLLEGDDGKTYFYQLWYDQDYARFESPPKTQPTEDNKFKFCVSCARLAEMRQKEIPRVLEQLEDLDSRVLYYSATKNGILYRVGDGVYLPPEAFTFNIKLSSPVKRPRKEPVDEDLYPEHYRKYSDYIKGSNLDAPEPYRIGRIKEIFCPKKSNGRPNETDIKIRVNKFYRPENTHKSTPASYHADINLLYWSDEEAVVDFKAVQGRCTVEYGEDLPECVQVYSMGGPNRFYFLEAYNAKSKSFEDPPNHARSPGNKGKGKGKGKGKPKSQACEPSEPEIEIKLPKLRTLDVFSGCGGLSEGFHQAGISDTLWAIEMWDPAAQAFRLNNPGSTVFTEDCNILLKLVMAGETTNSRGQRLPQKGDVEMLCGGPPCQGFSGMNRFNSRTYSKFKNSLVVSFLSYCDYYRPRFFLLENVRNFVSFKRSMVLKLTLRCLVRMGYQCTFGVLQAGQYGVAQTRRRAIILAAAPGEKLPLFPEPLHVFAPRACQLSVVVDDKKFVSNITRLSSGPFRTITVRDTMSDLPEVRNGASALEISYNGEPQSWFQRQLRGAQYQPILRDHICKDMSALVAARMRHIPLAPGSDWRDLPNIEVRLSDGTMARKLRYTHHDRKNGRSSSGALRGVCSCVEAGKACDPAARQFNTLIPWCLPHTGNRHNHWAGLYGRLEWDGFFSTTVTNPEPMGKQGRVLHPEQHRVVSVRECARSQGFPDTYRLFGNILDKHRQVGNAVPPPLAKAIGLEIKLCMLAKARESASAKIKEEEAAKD
UniProt P17987, whole entry, looked up: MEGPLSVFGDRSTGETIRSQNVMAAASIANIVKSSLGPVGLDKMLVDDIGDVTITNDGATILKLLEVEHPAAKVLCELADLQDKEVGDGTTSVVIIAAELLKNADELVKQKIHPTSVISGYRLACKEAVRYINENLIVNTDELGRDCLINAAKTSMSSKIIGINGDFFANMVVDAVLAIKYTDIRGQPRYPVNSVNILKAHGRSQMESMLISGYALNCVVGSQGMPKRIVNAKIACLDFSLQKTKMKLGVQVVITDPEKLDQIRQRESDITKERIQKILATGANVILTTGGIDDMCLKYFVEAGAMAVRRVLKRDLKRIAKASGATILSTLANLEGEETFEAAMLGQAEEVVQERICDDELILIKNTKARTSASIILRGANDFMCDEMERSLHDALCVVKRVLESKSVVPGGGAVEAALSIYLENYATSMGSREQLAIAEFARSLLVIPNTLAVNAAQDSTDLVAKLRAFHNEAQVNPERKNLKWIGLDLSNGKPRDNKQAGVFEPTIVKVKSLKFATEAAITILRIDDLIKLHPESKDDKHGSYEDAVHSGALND
UniProt P17844: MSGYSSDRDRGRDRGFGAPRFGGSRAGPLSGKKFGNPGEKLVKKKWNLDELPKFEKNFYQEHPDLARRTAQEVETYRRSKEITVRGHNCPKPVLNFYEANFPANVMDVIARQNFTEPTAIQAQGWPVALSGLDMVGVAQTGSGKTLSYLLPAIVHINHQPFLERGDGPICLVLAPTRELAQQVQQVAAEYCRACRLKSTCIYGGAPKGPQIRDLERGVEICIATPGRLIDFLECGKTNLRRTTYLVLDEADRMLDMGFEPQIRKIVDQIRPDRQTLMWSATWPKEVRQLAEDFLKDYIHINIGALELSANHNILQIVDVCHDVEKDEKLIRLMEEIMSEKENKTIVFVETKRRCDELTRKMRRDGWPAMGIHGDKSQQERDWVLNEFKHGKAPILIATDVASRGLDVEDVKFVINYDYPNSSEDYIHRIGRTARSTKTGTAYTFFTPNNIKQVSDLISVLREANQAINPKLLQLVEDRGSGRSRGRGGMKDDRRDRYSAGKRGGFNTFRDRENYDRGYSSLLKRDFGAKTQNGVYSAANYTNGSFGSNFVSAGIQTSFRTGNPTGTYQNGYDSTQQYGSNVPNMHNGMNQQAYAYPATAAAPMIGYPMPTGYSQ
UniProt P29692: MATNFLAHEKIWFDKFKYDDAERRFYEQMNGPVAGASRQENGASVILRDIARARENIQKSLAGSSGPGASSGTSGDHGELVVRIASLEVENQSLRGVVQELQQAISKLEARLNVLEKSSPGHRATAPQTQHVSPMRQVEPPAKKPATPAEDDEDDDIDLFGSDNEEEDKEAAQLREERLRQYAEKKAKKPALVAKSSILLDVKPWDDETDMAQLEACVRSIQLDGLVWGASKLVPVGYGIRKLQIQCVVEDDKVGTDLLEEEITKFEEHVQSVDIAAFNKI

Compound: COC(=O)C#Cc1ccccc1 [methyl 3-phenylpropiolate]
Experiment: log2 ratio of iodoacetamide-alkyne labeling of the cysteine site, DMSO over compound (competition); higher = stronger covalent engagement of the cysteine by the compound, active = 1 or more
Conditions: 500 µM; treatment time 1 h; system: HEK293T cell lysate
In short: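 After 1 h at ambient temperature with vehicle or electrophile (500 µM), HEK293T lysate (2 mg/mL) was labelled for 1 h with iodoacetamide alkyne and clicked to sCIP-TMT reagents. Pooled samples were trypsin-digested overnight at 37 °C, streptavidin-enriched, acid-eluted and analysed by Orbitrap Eclipse LC-MS/MS with FAIMS, then quantified in FragPipe over three replicates with duplicate channels. A cysteine's log2 competition ratio is its mean control-channel over mean compound-channel reporter intensity. Cysteines quantified in only one replicate were not included.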

Target	log2 ratio of iodoacetamide-alkyne labeling
VARS C663 (UniProt P26640)	inactive: 0.338
EEF1G C266 (UniProt P26641)	inactive: 0.0542
FECH C395 (UniProt P22830)	inactive: 0.372
LMNB1 C317 (UniProt P20700)	inactive: 0.175
CAD C736 (UniProt P27708)	inactive: 0.212
IMPDH1 C215 (UniProt P20839)	inactive: 0.0691
GART C646 (UniProt P22102)	inactive: 0.106
SON C2380 (UniProt P18583)	inactive: 0.383
UniProt P25398_C92	inactive: 0.587
RASA1 C1002 (UniProt P20936)	inactive: 0.0468
TUBG1 C138 (UniProt P23258)	inactive: 0.161
ACAT1 C119 (UniProt P24752)	inactive: 0.118
GART C168 (UniProt P22102)	inactive: 0.475
PML C389 (UniProt P29590)	inactive: 0.237
POLD1 C713 (UniProt P28340)	inactive: -0.0841
CAD C1889 (UniProt P27708)	inactive: 0.219
ANXA7 C363 (UniProt P20073)	inactive: 0.0125
DNMT1 C62 (UniProt P26358)	inactive: 0.213
MCC C714 (UniProt P23508)	inactive: 0.565

Target	log2 ratio of iodoacetamide-alkyne labeling
PFKL C351 (UniProt P17858)	inactive: 0.381
DNMT1 C1125 (UniProt P26358)	inactive: 0.473
TCP1 C385 (UniProt P17987)	inactive: 0.135
MCM3 C148 (UniProt P25205)	inactive: 0.548
DCK C45 (UniProt P27707)	inactive: 0.103
BTF3 C22 (UniProt P20290)	inactive: 0.972
LMNB1 C198 (UniProt P20700)	inactive: 0.109
VARS C381 (UniProt P26640)	inactive: 0.329
TCP1 C76 (UniProt P17987)	inactive: 0.188
DDX5 C89 (UniProt P17844)	inactive: -0.0239
UniProt P25705_C244	inactive: 0.205
CAD C183 (UniProt P27708)	inactive: 0.278
VARS C41 (UniProt P26640)	inactive: 0.235
ABCD3 C472 (UniProt P28288)	inactive: 0.697
MCM3 C319 (UniProt P25205)	inactive: -0.032
PRDX6 C91 (UniProt P30041)	inactive: 0.183
FLNA C1157 (UniProt P21333)	inactive: 0.106
EEF1D C217 (UniProt P29692)	inactive: 0.177

An excerpt of these results, in markdown.

| Target | log2 ratio of iodoacetamide-alkyne labeling |
| --- | --- |
| DNMT1 C1125 (UniProt P26358) | inactive: 0.473 |
| TCP1 C385 (UniProt P17987) | inactive: 0.135 |
